Assay results reported in patent publication US11779628B2 (Xigen Inflammation Ltd., priority 2014, dated 2023).
End groups of sequences in plain letters are not given here.

Experiment: peptide synthesis
Conditions: whole synthesis

Sequence: DQSRPVQPFLNLTTPRKPRPPRRRQRRKKRG
- purity (crude or final not stated): 95.28%
